Data as given in patent US20110046137A1, “Pyrazole Derivatives as P2X7 Modulators” (Glaxo Group Limited, priority 2007, published 2011).
Some of these results come from one statement about several compounds together.

Target: T1, human recombinant P2X7 receptors (Homo sapiens, UniProt Q99572)
T1 construct: expressed in transfected cells; host or cells: HEK293
T1 sequence (Q99572 1-595): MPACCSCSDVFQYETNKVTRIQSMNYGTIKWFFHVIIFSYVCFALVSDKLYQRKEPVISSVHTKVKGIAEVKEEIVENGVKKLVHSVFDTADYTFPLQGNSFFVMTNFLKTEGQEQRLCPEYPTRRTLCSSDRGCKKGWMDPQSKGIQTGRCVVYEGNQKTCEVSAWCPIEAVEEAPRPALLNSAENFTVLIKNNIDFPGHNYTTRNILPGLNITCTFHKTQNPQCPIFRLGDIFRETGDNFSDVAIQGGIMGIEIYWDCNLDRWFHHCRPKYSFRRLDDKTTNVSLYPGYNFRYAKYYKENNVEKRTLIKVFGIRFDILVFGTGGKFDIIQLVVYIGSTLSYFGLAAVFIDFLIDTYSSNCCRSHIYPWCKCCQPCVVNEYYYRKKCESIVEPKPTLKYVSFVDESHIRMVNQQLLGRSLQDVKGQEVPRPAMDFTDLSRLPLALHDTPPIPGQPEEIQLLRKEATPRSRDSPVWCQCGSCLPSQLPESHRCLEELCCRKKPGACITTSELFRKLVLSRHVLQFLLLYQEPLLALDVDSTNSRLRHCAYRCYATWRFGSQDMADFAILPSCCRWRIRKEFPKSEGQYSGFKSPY
Assay: Fluorescent Imaging Plate Reader (FLIPR) Ca Assay
Assay type: cell-based
Settings: HEK293 cells expressing human recombinant P2X7; blocking BzATP responses; tested in one and/or the other assay

p1050 values in the FLIPR Ca Assay (human P2X7 receptor antagonist activity), > 4.7:
Cc1nn(-c2ccccc2)c(C)c1CC(=O)NCc1ccc(Cl)cc1Cl [Example 39, N-[(2,4-dichlorophenyl)methyl]-2-(3,5-dimethyl-1-phenyl-1H-pyrazol-4-yl)acetamide]
Cc1nn(Cc2c[nH]cn2)c(C)c1CC(=O)NCc1ccc(F)cc1Cl [Example 50, N-[(2-chloro-4-fluorophenyl)methyl]-2-[1-(1H-imidazol-4-ylmethyl)-3,5-dimethyl-1H-pyrazol-4-yl]acetamide]
Cc1nn(CCNCC(C)C)c(C)c1CC(=O)NCc1ccc(F)cc1Cl [Example 139, N-[(2-chloro-4-fluorophenyl)methyl]-2-{3,5-dimethyl-1-{2-[(2-methylpropyl)amino]ethyl}-1H-pyrazol-4-yl}acetamide]
Cc1nn(-c2ccc(C(=O)NCCO)cc2)c(C)c1CC(=O)NCc1ccc(F)cc1Cl [Example 159, 4-[4-(2-{[(2-chloro-4-fluorophenyl)methyl]amino}-2-oxoethyl)-3,5-dimethyl-1H-pyrazol-1-yl]-N-(2-hydroxyethyl)benzamide]
Cc1nn(-c2ccccc2)c(C(C)C)c1CC(=O)NCc1ccc(F)cc1Cl [Example 121, N-[(2-chloro-4-fluorophenyl)methyl]-2-[3-methyl-5-(1-methylethyl)-1-phenyl-1H-pyrazol-4-yl]acetamide]
Cc1nn(-c2ccncc2)c(C)c1CC(=O)NCc1ccc(F)cc1Cl [Example 66, N-[(2-chloro-4-fluorophenyl)methyl]-2-[3,5-dimethyl-1-(4-pyridinyl)-1H-pyrazol-4-yl]acetamide]
O=C(Cc1cnn(-c2ccc(F)cc2)c1Br)NCc1ccc(F)cc1Cl [Example 182, 2-[5-bromo-1-(4-fluorophenyl)-1H-pyrazol-4-yl]-N-[(2-chloro-4-fluorophenyl)methyl]acetamide]
Cc1nn(CCCOc2ccccc2)c(C)c1CC(=O)NCc1ccc(F)cc1Cl [Example 106, N-[(2-chloro-4-fluorophenyl)methyl]-2-{3,5-dimethyl-1-[3-(phenyloxy)propyl]-1H-pyrazol-4-yl}acetamide]
Cc1c(CC(=O)NCc2ccc(F)cc2Cl)c(C(C)C)nn1-c1ccccc1 [Example 122, N-[(2-chloro-4-fluorophenyl)methyl]-2-[5-methyl-3-(1-methylethyl)-1-phenyl-1H-pyrazol-4-yl]acetamide]
Cc1nn(CC(=O)N2CCCCC2)c(C)c1CC(=O)NCc1ccc(F)cc1Cl [Example 128, N-[(2-chloro-4-fluorophenyl)methyl]-2-{3,5-dimethyl-1-[2-oxo-2-(1-piperidinyl)ethyl]-1H-pyrazol-4-yl}acetamide]
Cc1cccc(Cl)c1CNC(=O)Cc1c(C)nn(-c2ccccc2)c1C [Example 26, N-[(2-chloro-6-methylphenyl)methyl]-2-(3,5-dimethyl-1-phenyl-1H-pyrazol-4-yl)acetamide]
Cc1nn(-c2ccc(I)cc2)c(C)c1CC(=O)NCc1ccc(F)cc1Cl [Example 76, N-[(2-chloro-4-fluorophenyl)methyl]-2-[1-(4-iodophenyl)-3,5-dimethyl-1H-pyrazol-4-yl]acetamide]
Cc1nn(-c2ccccc2)c(C)c1CC(=O)NCc1c(Cl)cccc1Oc1ccccc1 [Example 36, N-{[2-chloro-6-(phenyloxy)phenyl]methyl}-2-(3,5-dimethyl-1-phenyl-1H-pyrazol-4-yl)acetamide]
Cc1cc(-n2nc(C)c(CC(=O)NCc3ccc(F)cc3Cl)c2C)ccn1 [Example 146, N-[(2-chloro-4-fluorophenyl)methyl]-2-[3,5-dimethyl-1-(2-methyl-4-pyridinyl)-1H-pyrazol-4-yl]acetamide]
Cl.O=C(Cc1cnn(CCNC2CCOCC2)c1C(F)(F)F)NCc1ccc(F)cc1Cl [Example 178, N-[(2-chloro-4-fluorophenyl)methyl]-2-[1-[2-(tetrahydro-2H-pyran-4-ylamino)ethyl]-5-(trifluoromethyl)-1H-pyrazol-4-yl]acetamide hydrochloride]
Cc1nn(Cc2nc3ccccc3s2)c(C)c1CC(=O)NCc1ccc(F)cc1Cl [Example 101, 2-[1-(1,3-benzothiazol-2-ylmethyl)-3,5-dimethyl-1H-pyrazol-4-yl]-N-[(2-chloro-4-fluorophenyl)methyl]acetamide]
Cc1nn(-c2ccccc2)c(C)c1CC(=O)NCc1ccc(Cl)c(Cl)c1 [Example 1, N-[(3,4-dichlorophenyl)methyl]-2-(3,5-dimethyl-1-phenyl-1H-pyrazol-4-yl)acetamide]
Cc1nn(CC(=O)N2CCOCC2)c(C)c1CC(=O)NCc1ccc(F)cc1Cl [Example 127, N-[(2-chloro-4-fluorophenyl)methyl]-2-{3,5-dimethyl-1-[2-(4-morpholinyl)-2-oxoethyl]-1H-pyrazol-4-yl}acetamide]
Cc1nn(-c2ncccn2)c(C)c1CC(=O)NCc1ccc(F)cc1Cl [Example 79, N-[(2-chloro-4-fluorophenyl)methyl]-2-[3,5-dimethyl-1-(2-pyrimidinyl)-1H-pyrazol-4-yl]acetamide]
Cc1nn(Cc2ccccn2)c(C)c1CC(=O)NCc1ccc(F)cc1Cl [Example 152, N-[(2-chloro-4-fluorophenyl)methyl]-2-[3,5-dimethyl-1-(2-pyridinylmethyl)-1H-pyrazol-4-yl]acetamide]
CCN(CC)CCn1nc(C)c(CC(=O)NCc2ccc(F)cc2Cl)c1C [Example 135, N-[(2-chloro-4-fluorophenyl)methyl]-2-{1-[2-(diethylamino)ethyl]-3,5-dimethyl-1H-pyrazol-4-yl}acetamide]
Cc1nn(-c2ccc(C(=O)N3CCN(c4ccccc4)CC3)cc2)c(C)c1CC(=O)NCc1ccc(F)cc1Cl [Example 158, N-[(2-chloro-4-fluorophenyl)methyl]-2-(3,5-dimethyl-1-{4-[(4-phenyl-1-piperazinyl)carbonyl]phenyl}-1H-pyrazol-4-yl)acetamide]
Cc1nn(-c2ccccc2)c(C)c1CC(=O)NCc1ccc(Oc2ccccc2)cc1 [Example 38, 2-(3,5-dimethyl-1-phenyl-1H-pyrazol-4-yl)-N-{[4-(phenyloxy)phenyl]methyl}acetamide]
Cc1nn(CC(C)(C)O)c(C)c1CC(=O)NCc1ccc(F)c(F)c1F [Example 166, 2-[1-(2-hydroxy-2-methylpropyl)-3,5-dimethyl-1H-pyrazol-4-yl]-N-[(2,3,4-trifluorophenyl)methyl]acetamide]
Cc1cccc(C)c1OCCn1nc(C)c(CC(=O)NCc2ccc(F)cc2Cl)c1C [Example 100, N-[(2-chloro-4-fluorophenyl)methyl]-2-(1-{2-[(2,6-dimethylphenyl)oxy]ethyl}-3,5-dimethyl-1H-pyrazol-4-yl)acetamide]
Cc1nn(-c2ccccc2)c(C)c1CC(=O)NCc1ccccc1[N+](=O)[O-] [Example 16, 2-(3,5-dimethyl-1-phenyl-1H-pyrazol-4-yl)-N-[(2-nitrophenyl)methyl]acetamide]
Cc1nn(-c2ccccc2)c(C)c1CC(=O)NCc1cccc(Cl)c1C [Example 19, N-[(3-chloro-2-methylphenyl)methyl]-2-(3,5-dimethyl-1-phenyl-1H-pyrazol-4-yl)acetamide]
Cc1nn(-c2ccccc2)c(C)c1CC(=O)NCc1cccc(F)c1F [Example 35, N-[(2,3-difluorophenyl)methyl]-2-(3,5-dimethyl-1-phenyl-1H-pyrazol-4-yl)acetamide]
COc1ccc(Cn2nc(C)c(CC(=O)NCc3ccc(F)cc3Cl)c2C)cc1 [Example 90, N-[(2-chloro-4-fluorophenyl)methyl]-2-(3,5-dimethyl-1-{[4-(methyloxy)phenyl]methyl}-1H-pyrazol-4-yl)acetamide]
COc1ccc(CC(C)n2nc(C)c(CC(=O)NCc3ccc(F)cc3Cl)c2C)cc1 (stereo not drawn) [Example 98, N-[(2-chloro-4-fluorophenyl)methyl]-2-(3,5-dimethyl-1-{1-methyl-2-[4-(methyloxy)phenyl]ethyl}-1H-pyrazol-4-yl)acetamide]
